Assay results as given in patent publication US20130029334A1, “mRNA As Biomarkers For Liver Injury or Other Liver Perturbations” (priority 2010, published 2013).

Legend:
rats [1] = assay: Canonical pathway analysis of APAP and DGAL microarray data; set-up: species or system rat; conditions: APAP treatment
rats [2] = assay: Sucrose density gradient fractionation of plasma 14,000xg pellet with qPCR and electron microscopy; format: in vivo, rat; conditions: plasma pellet of DGAL-treated rats

Compound	# genes diff. exp., Cell Death: Cell death (rats [1])	Gene Exp. Ratio, canonical pathway Antigen Presentation (rats [1])	Gene Exp. Ratio, canonical pathway B-cell Receptor Signaling (rats [1])	Gene Exp. Ratio, canonical pathway Caveolar-Mediated Endocytosis (rats [1])	Gene Exp. Ratio, canonical pathway Ephrin Receptor Signaling (rats [1])	Gene Exp. Ratio, canonical pathway Fcy Receptor-mediated Phagocytosis in Macrophages and Monocytes (rats [1])	Gene Exp. Ratio, canonical pathway Integrin Signaling (rats [1])	Gene Exp. Ratio, canonical pathway Lipid Ag Presentation by CD1 (rats [1])	Gene Exp. Ratio, canonical pathway Thrombin Signaling (rats [1])	Gene Exp. Ratio, canonical pathway Virus Entry via Endocytic Pathways (rats [1])	share of Hp mRNA copies in middle fractions (rats [2])	share of total Alb mRNA copies in middle fractions (1.10-1.18 g/ml) (rats [2])	share of total Fgb mRNA copies in middle fractions (rats [2])
CC(=O)Nc1ccc(O)cc1 [APAP, acetaminophen]	223	9/39	21/155	15/182	25/195	18/104	31/203	6/20	28/203	17/96			
N[C@H]1C(O)O[C@H](CO)[C@H](O)[C@@H]1O (stereo partly drawn) [DGAL, D-(+)-galactosamine]											81%	89%	84%
